The other results are listed elsewhere or left out. The calls rarely recur for the same compound in another form.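 In K562 cells expressing nanoluciferase-fused kinases, luminescence was recorded at 4 h intervals between 2 and 18 h, normalized as percent of control with DMSO at 100% and a positive control at 0%. A significant (2 sigma) signal drop marks a time point as decreased. The authors' rule for a hit is not shown and takes in more than the number of time points.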
How the values were obtained:
Test in all cases: kinase-Nluc reporter destabilization hit call (1 = scored as downregulated) (binary); higher = compound decreases kinase abundance
Settings in all cases: K562; 2-18 h
IRAK3 = IRAK3 (UniProt Q9Y616)
JAK1 = JAK1 (UniProt P23458)
LCK = LCK (UniProt P06239)
LIMK1 = LIMK1 (UniProt P53667)
LIMK2 = LIMK2 (UniProt P53671)
LMTK2 = LMTK2 (UniProt Q8IWU2)
LYN = LYN (UniProt P07948)
MAP2K1 = MAP2K1 (UniProt Q02750)
MAP2K2 = MAP2K2 (UniProt P36507)
MAP4K2 = MAP4K2 (UniProt Q12851)
MAPK1 = MAPK1 (UniProt P28482)
MAPK4 = MAPK4 (UniProt P31152)
MAPKAPK2 = MAPKAPK2 (UniProt P49137)
MKNK1 = MKNK1 (UniProt Q9BUB5)
NTRK2 = NTRK2 (UniProt Q16620)
NTRK3 = NTRK3 (UniProt Q16288)
PAK4 = PAK4 (UniProt O96013)
PBK = PBK (UniProt Q96KB5)
PDGFRB = PDGFRB (UniProt P09619)
PDK1 = PDK1 (UniProt Q15118)

By UniProt entry, the sequences of proteins in these tests, tags left out. Where a name states a change or a piece, a line headed by the entry shows the natural chain unless it says otherwise.
UniProt Q8IWU2: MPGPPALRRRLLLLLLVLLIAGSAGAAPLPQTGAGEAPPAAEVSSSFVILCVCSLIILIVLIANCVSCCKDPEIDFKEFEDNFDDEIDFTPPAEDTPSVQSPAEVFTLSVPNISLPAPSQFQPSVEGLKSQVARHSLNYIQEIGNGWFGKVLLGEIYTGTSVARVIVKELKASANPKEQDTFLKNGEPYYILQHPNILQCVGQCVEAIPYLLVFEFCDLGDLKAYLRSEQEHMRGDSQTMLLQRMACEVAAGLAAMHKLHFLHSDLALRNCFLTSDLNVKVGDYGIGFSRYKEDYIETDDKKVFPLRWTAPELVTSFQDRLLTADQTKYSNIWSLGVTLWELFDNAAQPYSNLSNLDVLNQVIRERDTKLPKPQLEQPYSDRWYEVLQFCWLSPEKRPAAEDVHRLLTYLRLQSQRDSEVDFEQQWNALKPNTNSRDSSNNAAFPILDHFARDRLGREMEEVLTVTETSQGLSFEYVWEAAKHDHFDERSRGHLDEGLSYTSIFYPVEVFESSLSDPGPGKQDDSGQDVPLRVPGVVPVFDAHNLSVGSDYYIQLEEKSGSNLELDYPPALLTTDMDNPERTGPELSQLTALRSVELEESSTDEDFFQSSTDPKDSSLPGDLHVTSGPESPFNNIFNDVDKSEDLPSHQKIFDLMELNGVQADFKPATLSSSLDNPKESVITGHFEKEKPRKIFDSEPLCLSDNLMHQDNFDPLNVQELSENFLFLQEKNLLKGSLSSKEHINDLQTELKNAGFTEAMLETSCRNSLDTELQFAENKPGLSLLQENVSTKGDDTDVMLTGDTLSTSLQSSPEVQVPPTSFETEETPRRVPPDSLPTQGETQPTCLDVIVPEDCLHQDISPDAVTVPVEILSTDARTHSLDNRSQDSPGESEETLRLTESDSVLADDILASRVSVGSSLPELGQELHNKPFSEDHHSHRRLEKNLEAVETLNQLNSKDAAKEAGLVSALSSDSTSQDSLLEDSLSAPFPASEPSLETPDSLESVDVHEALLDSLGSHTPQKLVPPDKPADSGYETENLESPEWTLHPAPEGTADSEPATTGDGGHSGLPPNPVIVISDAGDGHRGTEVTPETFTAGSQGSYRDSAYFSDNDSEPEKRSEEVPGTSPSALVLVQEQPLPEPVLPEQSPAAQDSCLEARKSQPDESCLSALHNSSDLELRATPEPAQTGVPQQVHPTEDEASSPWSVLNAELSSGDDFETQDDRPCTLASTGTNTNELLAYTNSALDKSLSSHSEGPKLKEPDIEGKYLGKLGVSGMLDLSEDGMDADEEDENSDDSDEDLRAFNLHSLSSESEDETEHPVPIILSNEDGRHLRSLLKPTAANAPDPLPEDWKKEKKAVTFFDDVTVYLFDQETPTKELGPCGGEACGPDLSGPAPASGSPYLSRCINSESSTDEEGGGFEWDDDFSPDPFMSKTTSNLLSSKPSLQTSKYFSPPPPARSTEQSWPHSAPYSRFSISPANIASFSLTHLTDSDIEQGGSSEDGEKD
UniProt Q12851: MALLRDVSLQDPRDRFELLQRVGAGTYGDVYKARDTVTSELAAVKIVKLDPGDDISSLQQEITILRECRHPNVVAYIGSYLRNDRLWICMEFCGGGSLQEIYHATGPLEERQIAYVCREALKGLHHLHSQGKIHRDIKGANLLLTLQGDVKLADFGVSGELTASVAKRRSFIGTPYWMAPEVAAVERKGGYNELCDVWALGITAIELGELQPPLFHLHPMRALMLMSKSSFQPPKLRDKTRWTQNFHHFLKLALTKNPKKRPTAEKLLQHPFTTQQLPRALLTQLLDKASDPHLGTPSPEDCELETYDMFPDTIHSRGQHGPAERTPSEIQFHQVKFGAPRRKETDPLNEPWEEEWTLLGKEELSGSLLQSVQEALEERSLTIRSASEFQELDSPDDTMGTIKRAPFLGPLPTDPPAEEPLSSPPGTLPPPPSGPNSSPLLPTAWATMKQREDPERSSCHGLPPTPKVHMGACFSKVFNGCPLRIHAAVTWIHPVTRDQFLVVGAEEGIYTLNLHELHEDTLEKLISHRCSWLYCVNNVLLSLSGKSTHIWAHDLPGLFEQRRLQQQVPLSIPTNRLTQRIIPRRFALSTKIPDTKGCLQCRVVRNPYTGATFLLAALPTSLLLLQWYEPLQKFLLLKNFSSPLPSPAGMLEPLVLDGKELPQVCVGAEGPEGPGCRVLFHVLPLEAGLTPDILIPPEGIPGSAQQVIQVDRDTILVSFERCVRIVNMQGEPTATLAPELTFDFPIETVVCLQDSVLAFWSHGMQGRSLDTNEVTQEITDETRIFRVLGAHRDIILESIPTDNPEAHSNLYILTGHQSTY
UniProt P28482, whole entry: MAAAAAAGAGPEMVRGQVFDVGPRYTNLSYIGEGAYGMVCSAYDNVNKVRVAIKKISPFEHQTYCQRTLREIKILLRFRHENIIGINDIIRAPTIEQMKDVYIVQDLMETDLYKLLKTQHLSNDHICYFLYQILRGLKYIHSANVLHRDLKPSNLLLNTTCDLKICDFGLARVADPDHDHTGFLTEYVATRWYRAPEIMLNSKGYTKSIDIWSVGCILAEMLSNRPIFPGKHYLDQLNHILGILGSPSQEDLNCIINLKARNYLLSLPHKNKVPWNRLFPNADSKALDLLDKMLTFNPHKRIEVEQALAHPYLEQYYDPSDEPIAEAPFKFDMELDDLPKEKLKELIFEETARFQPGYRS
UniProt P31152, whole entry: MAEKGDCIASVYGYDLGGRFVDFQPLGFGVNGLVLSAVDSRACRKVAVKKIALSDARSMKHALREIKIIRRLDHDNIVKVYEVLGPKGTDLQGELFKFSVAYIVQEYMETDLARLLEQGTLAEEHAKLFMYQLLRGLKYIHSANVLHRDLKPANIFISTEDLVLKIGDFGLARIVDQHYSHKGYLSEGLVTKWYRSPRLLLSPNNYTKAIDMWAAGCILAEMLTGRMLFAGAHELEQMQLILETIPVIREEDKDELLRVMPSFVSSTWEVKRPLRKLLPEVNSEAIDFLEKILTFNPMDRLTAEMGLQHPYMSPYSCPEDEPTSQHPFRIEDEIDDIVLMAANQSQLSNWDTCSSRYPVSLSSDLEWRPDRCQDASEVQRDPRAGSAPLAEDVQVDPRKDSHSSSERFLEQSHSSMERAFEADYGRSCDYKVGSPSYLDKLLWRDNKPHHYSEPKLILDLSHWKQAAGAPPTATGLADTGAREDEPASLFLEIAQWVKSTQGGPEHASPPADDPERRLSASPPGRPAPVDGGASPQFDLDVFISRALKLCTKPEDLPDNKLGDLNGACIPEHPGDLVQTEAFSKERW
UniProt P49137, whole entry, looked up: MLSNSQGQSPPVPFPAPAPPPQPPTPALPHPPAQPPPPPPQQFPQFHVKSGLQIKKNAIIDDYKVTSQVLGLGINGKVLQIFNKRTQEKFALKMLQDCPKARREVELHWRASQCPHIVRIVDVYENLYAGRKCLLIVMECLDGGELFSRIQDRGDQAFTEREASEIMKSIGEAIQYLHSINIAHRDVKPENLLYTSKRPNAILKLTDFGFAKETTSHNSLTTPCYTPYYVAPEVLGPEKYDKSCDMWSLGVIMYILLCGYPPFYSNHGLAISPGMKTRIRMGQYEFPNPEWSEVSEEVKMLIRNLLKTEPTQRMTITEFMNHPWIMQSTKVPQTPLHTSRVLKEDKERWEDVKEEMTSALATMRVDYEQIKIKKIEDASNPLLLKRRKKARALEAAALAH
UniProt Q9BUB5: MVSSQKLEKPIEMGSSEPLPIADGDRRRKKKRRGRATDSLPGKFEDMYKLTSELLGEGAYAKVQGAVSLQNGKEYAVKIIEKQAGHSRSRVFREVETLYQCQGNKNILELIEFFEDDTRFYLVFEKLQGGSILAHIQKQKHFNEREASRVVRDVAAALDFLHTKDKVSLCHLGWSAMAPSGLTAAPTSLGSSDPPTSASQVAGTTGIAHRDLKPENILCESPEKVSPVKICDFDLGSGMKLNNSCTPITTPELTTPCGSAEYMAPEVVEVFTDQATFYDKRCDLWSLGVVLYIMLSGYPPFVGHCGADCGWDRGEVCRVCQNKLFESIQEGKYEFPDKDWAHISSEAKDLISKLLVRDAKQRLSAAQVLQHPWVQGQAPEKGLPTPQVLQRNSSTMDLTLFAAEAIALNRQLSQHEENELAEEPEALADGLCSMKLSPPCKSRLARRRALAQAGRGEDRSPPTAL
UniProt O96013: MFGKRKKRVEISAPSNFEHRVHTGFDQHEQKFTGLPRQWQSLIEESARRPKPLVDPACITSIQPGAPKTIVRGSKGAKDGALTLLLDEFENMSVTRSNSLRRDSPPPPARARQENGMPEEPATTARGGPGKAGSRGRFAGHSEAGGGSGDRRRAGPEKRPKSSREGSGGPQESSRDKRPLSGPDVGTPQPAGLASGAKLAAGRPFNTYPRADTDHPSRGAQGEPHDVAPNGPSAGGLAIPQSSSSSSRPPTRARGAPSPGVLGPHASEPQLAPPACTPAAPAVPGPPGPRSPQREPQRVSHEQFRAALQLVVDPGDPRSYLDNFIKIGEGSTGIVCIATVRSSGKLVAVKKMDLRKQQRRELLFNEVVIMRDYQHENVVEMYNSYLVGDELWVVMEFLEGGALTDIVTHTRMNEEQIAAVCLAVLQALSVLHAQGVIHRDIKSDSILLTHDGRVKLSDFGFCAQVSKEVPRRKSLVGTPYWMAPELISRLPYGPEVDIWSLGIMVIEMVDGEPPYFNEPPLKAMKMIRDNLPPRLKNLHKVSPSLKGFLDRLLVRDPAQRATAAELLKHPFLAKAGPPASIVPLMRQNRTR
UniProt Q96KB5: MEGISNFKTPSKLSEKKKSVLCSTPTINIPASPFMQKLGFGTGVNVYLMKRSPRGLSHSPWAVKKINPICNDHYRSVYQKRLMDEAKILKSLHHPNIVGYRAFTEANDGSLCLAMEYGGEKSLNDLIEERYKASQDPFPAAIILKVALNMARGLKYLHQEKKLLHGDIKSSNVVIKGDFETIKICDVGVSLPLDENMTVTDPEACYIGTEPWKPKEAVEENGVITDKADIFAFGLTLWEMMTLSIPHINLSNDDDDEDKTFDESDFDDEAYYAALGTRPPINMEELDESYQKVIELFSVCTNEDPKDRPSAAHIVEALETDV
UniProt P09619, whole entry: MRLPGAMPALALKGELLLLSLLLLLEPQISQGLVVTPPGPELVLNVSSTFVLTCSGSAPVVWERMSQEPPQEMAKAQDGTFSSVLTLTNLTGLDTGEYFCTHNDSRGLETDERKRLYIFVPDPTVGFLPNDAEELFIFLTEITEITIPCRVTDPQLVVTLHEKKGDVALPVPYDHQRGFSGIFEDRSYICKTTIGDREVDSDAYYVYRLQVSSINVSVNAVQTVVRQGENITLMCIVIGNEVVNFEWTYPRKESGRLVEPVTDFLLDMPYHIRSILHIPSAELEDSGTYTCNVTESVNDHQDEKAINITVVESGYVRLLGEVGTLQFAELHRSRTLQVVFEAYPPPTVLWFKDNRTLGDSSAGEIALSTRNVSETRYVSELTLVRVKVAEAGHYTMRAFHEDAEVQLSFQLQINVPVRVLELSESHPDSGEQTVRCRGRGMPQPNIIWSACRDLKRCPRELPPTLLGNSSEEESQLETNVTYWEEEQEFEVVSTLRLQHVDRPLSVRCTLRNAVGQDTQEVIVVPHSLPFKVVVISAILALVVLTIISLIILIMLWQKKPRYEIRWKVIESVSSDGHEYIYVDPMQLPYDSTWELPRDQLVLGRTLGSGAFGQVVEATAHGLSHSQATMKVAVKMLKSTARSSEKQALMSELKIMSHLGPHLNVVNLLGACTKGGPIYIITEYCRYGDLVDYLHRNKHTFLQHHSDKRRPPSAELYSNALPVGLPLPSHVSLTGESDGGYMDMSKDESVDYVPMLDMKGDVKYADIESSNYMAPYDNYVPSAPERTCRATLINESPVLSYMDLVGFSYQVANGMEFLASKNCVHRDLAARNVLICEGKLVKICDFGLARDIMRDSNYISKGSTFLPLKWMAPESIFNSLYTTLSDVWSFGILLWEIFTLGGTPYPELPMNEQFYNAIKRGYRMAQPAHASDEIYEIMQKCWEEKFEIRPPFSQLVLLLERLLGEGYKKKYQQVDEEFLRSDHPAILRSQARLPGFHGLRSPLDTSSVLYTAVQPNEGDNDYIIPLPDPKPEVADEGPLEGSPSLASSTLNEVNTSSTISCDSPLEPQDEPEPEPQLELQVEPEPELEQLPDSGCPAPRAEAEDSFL
UniProt Q15118, whole entry, looked up: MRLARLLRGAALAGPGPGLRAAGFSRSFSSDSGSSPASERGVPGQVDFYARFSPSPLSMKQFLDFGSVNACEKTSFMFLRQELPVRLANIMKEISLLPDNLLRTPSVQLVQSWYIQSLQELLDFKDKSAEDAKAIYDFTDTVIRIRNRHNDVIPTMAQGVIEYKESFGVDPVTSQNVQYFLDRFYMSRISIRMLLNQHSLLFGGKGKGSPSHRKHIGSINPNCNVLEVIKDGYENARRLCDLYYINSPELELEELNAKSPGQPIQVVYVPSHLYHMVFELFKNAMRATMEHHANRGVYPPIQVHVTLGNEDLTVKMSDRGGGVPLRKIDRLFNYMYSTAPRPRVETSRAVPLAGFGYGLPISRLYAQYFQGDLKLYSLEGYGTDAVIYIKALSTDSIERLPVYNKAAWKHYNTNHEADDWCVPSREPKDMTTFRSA

Measured: kinase-Nluc reporter destabilization hit call

Cc1ccc2nc(NCCN)c3ncc(C)n3c2c1 (2.5 µM)
inactive: IRAK3 = 0 | JAK1 = 0 | LCK 0 | LIMK1 = 0 | LIMK2 = 0 | LMTK2 = 0 | LYN 0 | MAP2K1 = 0 | MAP2K2 = 0 | MAP4K2 = 0 | MAPK1 = 0 | MAPK4 = 0 | MAPKAPK2 = 0 | MKNK1 = 0 | NTRK2 = 0 | NTRK3 = 0 | PAK4 = 0 | PBK 0 | PDGFRB 0 | PDK1 = 0

CNC(=O)c1cc(COc2nnc(Nc3ccc(Cl)cc3)c3ccoc23)ccn1 [Telatinib] (10 µM)
inactive: IRAK3 = 0 | JAK1 = 0 | LCK 0 | LIMK1 = 0 | LIMK2 = 0 | LMTK2 = 0 | LYN 0 | MAP2K1 = 0 | MAP2K2 = 0 | MAP4K2 = 0 | MAPK1 = 0 | MAPK4 = 0 | MAPKAPK2 = 0 | MKNK1 = 0 | NTRK2 = 0 | NTRK3 = 0 | PAK4 = 0 | PBK 0 | PDGFRB 0 | PDK1 = 0

C[C@@H]1CCN(C(=O)CC#N)C[C@@H]1N(C)c1ncnc2[nH]ccc12 [Tofacitinib] (10 µM)
inactive: IRAK3 = 0 | LCK 0 | LIMK1 = 0 | LIMK2 = 0 | LMTK2 = 0 | LYN 0 | MAP2K1 = 0 | MAP2K2 = 0 | MAP4K2 = 0 | MAPK1 = 0 | MAPK4 = 0 | MAPKAPK2 = 0 | MKNK1 = 0 | NTRK2 = 0 | NTRK3 = 0 | PAK4 = 0 | PBK 0 | PDK1 = 0

COc1cc2nccc(Oc3ccc(NC(=O)NC4CC4)c(Cl)c3)c2cc1C(N)=O [Lenvatinib] (10 µM)
inactive: IRAK3 = 0 | JAK1 = 0 | LCK 0 | LIMK1 = 0 | LIMK2 = 0 | LMTK2 = 0 | LYN 0 | MAP2K1 = 0 | MAP2K2 = 0 | MAP4K2 = 0 | MAPK1 = 0 | MAPK4 = 0 | MAPKAPK2 = 0 | MKNK1 = 0 | NTRK2 = 0 | NTRK3 = 0 | PAK4 = 0 | PBK 0 | PDGFRB 0 | PDK1 = 0

O=c1[nH]c(=O)n([C@@H]2O[C@H](CO)[C@@H](O)[C@@H]2O)cc1/C=C/Br [Sorivudine] (10 µM)
inactive: IRAK3 = 0 | JAK1 = 0 | LCK 0 | LIMK1 = 0 | LIMK2 = 0 | LMTK2 = 0 | LYN 0 | MAP2K1 = 0 | MAP2K2 = 0 | MAP4K2 = 0 | MAPK1 = 0 | MAPK4 = 0 | MAPKAPK2 = 0 | MKNK1 = 0 | NTRK2 = 0 | NTRK3 = 0 | PAK4 = 0 | PBK 0 | PDGFRB 0 | PDK1 = 0

C=CC(=O)Nc1ccc(CN2C(=O)N(c3cc(OC)cc(OC)c3)Cc3cnc(Nc4ccc(N5CCN(C)CC5)cc4)nc32)cc1 (2.5 µM)
inactive: IRAK3 = 0 | JAK1 = 0 | LCK 0 | LIMK1 = 0 | LIMK2 = 0 | LMTK2 = 0 | LYN 0 | MAP2K1 = 0 | MAP2K2 = 0 | MAP4K2 = 0 | MAPK1 = 0 | MAPK4 = 0 | MAPKAPK2 = 0 | MKNK1 = 0 | NTRK2 = 0 | NTRK3 = 0 | PAK4 = 0 | PBK 0 | PDGFRB 0 | PDK1 = 0

COc1cc2c(N3CCN(C(=O)Nc4ccc(OC(C)C)cc4)CC3)ncnc2cc1OCCCN1CCCCC1 [Tandutinib] (10 µM)
inactive: IRAK3 = 0 | JAK1 = 0 | LCK 0 | LIMK1 = 0 | LIMK2 = 0 | LMTK2 = 0 | LYN 0 | MAP2K1 = 0 | MAP2K2 = 0 | MAP4K2 = 0 | MAPK1 = 0 | MAPK4 = 0 | MAPKAPK2 = 0 | MKNK1 = 0 | NTRK2 = 0 | PAK4 = 0 | PBK 0 | PDK1 = 0

CC(C)(O)CNc1ncc(-c2ccnc(Nc3ccnc(Cl)c3)n2)c(CC2CC2)n1 (2.5 µM)
inactive: IRAK3 = 0 | JAK1 = 0 | LCK 0 | LIMK1 = 0 | LIMK2 = 0 | LMTK2 = 0 | LYN 0 | MAP2K1 = 0 | MAP2K2 = 0 | MAP4K2 = 0 | MAPK1 = 0 | MAPK4 = 0 | MAPKAPK2 = 0 | MKNK1 = 0 | NTRK2 = 0 | NTRK3 = 0 | PAK4 = 0 | PBK 0 | PDGFRB 0 | PDK1 = 0

O=C([O-])c1cc2ccccc2c(Cc2c(O)c(C(=O)[O-])cc3ccccc23)c1O.[Na+].[Na+] [Pamoic acid (disodium)] (10 µM)
inactive: IRAK3 = 0 | JAK1 = 0 | LCK 0 | LIMK1 = 0 | LIMK2 = 0 | LMTK2 = 0 | LYN 0 | MAP2K1 = 0 | MAP2K2 = 0 | MAP4K2 = 0 | MAPK1 = 0 | MAPK4 = 0 | MAPKAPK2 = 0 | MKNK1 = 0 | NTRK2 = 0 | NTRK3 = 0 | PAK4 = 0 | PBK 0 | PDGFRB 0 | PDK1 = 0

Copied from the entries so far (2 entries):
O=c1[nH]c(=O)n([C@@H]2O[C@H](CO)[C@@H](O)[C@@H]2O)cc1/C=C/Br [Sorivudine] (10 µM)
inactive: IRAK3 = 0 | JAK1 = 0 | LCK 0 | LIMK1 = 0 | LIMK2 = 0 | LMTK2 = 0 | LYN 0 | MAP2K1 = 0 | MAP2K2 = 0 | MAP4K2 = 0 | MAPK1 = 0 | MAPK4 = 0 | MAPKAPK2 = 0 | MKNK1 = 0 | NTRK2 = 0 | NTRK3 = 0 | PAK4 = 0 | PBK 0 | PDGFRB 0 | PDK1 = 0

C=CC(=O)Nc1ccc(CN2C(=O)N(c3cc(OC)cc(OC)c3)Cc3cnc(Nc4ccc(N5CCN(C)CC5)cc4)nc32)cc1 (2.5 µM)
inactive: IRAK3 = 0 | JAK1 = 0 | LCK 0 | LIMK1 = 0 | LIMK2 = 0 | LMTK2 = 0 | LYN 0 | MAP2K1 = 0 | MAP2K2 = 0 | MAP4K2 = 0 | MAPK1 = 0 | MAPK4 = 0 | MAPKAPK2 = 0 | MKNK1 = 0 | NTRK2 = 0 | NTRK3 = 0 | PAK4 = 0 | PBK 0 | PDGFRB 0 | PDK1 = 0

(list continues)

O=C1NC(=O)/C(=C/c2ccc3nccnc3c2)S1 (10 µM)
inactive: IRAK3 = 0 | JAK1 = 0 | LCK 0 | LIMK1 = 0 | LIMK2 = 0 | LMTK2 = 0 | LYN 0 | MAP2K1 = 0 | MAP2K2 = 0 | MAP4K2 = 0 | MAPK1 = 0 | MAPK4 = 0 | MAPKAPK2 = 0 | MKNK1 = 0 | NTRK2 = 0 | NTRK3 = 0 | PAK4 = 0 | PBK 0 | PDGFRB 0 | PDK1 = 0

COc1cc(/C=C/C(=O)NCC(O)c2ccc(O)cc2)ccc1O (stereo unspecified) [N-Feruloyloctopamine] (2.5 µM)
inactive: IRAK3 = 0 | JAK1 = 0 | LCK 0 | LIMK1 = 0 | LIMK2 = 0 | LMTK2 = 0 | LYN 0 | MAP2K1 = 0 | MAP2K2 = 0 | MAP4K2 = 0 | MAPK1 = 0 | MAPK4 = 0 | MAPKAPK2 = 0 | MKNK1 = 0 | NTRK2 = 0 | NTRK3 = 0 | PAK4 = 0 | PBK 0 | PDGFRB 0 | PDK1 = 0

CC1(C)C(O[C@@H]2OC[C@@H](O)[C@H](O)[C@H]2O)CC[C@]23CC24CC[C@]2(C)[C@@H]([C@@]5(C)CC[C@@H](C(C)(C)O)O5)[C@H](O)C[C@@]2(C)C4C[C@@H](O[C@@H]2O[C@H](CO)[C@@H](O)[C@H](O)[C@H]2O)C13 (stereo partly specified) [Astragaloside IV] (10 µM)
inactive: IRAK3 = 0 | JAK1 = 0 | LCK 0 | LIMK1 = 0 | LIMK2 = 0 | LMTK2 = 0 | LYN 0 | MAP2K1 = 0 | MAP2K2 = 0 | MAP4K2 = 0 | MAPK1 = 0 | MAPK4 = 0 | MAPKAPK2 = 0 | MKNK1 = 0 | NTRK2 = 0 | NTRK3 = 0 | PAK4 = 0 | PBK 0 | PDGFRB 0 | PDK1 = 0

CC#CC(=O)N1CC[C@@H](n2c(=O)n(-c3ccc(Oc4ccccc4)cc3)c3c(N)ncnc32)C1 [Tirabrutinib] (10 µM)
inactive: IRAK3 = 0 | JAK1 = 0 | LCK 0 | LIMK1 = 0 | LIMK2 = 0 | LMTK2 = 0 | LYN 0 | MAP2K1 = 0 | MAP2K2 = 0 | MAP4K2 = 0 | MAPK1 = 0 | MAPK4 = 0 | MAPKAPK2 = 0 | MKNK1 = 0 | NTRK2 = 0 | NTRK3 = 0 | PAK4 = 0 | PBK 0 | PDGFRB 0 | PDK1 = 0

CC(=O)NC1CC(n2cnc(NC(=O)Cc3ccc4ccccc4c3)c2)C1 (stereo unspecified) (10 µM)
inactive: IRAK3 = 0 | JAK1 = 0 | LCK 0 | LIMK1 = 0 | LIMK2 = 0 | LMTK2 = 0 | LYN 0 | MAP2K1 = 0 | MAP2K2 = 0 | MAP4K2 = 0 | MAPK1 = 0 | MAPK4 = 0 | MAPKAPK2 = 0 | MKNK1 = 0 | NTRK2 = 0 | NTRK3 = 0 | PAK4 = 0 | PBK 0 | PDGFRB 0 | PDK1 = 0

COc1cccc(OC)c1C(=O)OCc1cc(O)ccc1O[C@@H]1O[C@H](CO)[C@@H](O)[C@H](O)[C@H]1O [Curculigoside] (10 µM)
inactive: IRAK3 = 0 | JAK1 = 0 | LCK 0 | LIMK1 = 0 | LIMK2 = 0 | LMTK2 = 0 | LYN 0 | MAP2K1 = 0 | MAP2K2 = 0 | MAP4K2 = 0 | MAPK1 = 0 | MAPK4 = 0 | MAPKAPK2 = 0 | MKNK1 = 0 | NTRK2 = 0 | NTRK3 = 0 | PAK4 = 0 | PBK 0 | PDGFRB 0 | PDK1 = 0

CN1C(=O)N[C@H](Cc2c[nH]c3c(Cl)cccc23)C1=O [Necrostatin 2] (10 µM)
inactive: IRAK3 = 0 | JAK1 = 0 | LCK 0 | LIMK1 = 0 | LIMK2 = 0 | LMTK2 = 0 | LYN 0 | MAP2K1 = 0 | MAP2K2 = 0 | MAP4K2 = 0 | MAPK1 = 0 | MAPK4 = 0 | MAPKAPK2 = 0 | MKNK1 = 0 | NTRK2 = 0 | NTRK3 = 0 | PAK4 = 0 | PBK 0 | PDGFRB 0 | PDK1 = 0

From the supplement of paper PMC12823440, “Inhibitors supercharge kinase turnover through native proteolytic circuits” (Nature, 2025)
